From publication PMC5891424
Substitutions are numbered along the chain they refer to. In names and notes the source's numbering stands. No constants are given. Whether binding was seen depends on the method and setting. In cells and extracts the contact can be indirect. Some binding calls cover weakened binding; strength is not graded here. Tags and fused reporters may be left off the sequences shown.

Sequences of proteins named here, by UniProt entry; tags and fusion partners are left off.
UniProt Q676U5: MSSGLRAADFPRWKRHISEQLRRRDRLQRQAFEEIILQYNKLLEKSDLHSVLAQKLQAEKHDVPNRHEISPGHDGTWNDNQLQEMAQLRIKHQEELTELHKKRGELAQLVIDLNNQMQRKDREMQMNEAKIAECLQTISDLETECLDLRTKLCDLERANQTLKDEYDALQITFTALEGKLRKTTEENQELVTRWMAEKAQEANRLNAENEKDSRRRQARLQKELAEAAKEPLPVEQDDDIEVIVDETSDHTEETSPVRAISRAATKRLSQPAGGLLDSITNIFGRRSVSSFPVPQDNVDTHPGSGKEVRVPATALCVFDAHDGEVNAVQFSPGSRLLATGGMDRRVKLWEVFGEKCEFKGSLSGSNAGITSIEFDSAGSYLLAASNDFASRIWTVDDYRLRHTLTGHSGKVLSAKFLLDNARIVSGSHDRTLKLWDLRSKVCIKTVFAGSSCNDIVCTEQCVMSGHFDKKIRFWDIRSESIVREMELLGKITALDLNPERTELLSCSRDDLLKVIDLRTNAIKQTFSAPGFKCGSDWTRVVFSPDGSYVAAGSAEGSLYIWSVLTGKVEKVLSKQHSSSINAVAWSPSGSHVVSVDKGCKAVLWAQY

T1: myc-tagged SNX18 W38K (Dynamin-2 binding-deficient mutant) (human) (UniProt Q96RF0)
T1 sequence: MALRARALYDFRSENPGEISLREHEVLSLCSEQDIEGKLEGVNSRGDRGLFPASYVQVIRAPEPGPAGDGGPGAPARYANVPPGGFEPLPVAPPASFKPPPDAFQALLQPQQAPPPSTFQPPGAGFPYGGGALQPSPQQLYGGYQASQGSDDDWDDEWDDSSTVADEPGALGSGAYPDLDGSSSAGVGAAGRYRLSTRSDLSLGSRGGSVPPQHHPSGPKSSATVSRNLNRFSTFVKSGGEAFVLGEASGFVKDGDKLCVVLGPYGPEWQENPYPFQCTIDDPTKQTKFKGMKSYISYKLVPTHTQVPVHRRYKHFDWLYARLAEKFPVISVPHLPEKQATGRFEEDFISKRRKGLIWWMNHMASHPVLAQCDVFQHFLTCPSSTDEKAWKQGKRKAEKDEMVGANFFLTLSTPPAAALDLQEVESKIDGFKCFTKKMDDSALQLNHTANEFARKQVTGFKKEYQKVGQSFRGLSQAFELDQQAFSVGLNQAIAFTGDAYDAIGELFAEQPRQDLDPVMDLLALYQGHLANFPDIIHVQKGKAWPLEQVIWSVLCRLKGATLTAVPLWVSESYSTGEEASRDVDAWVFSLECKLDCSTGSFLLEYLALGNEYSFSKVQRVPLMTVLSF

T2: myc-tagged SNX18 WT (sorting nexin 18) (human) (UniProt Q96RF0)
T2 sequence: T1 sequence with K38W

B1: myc-tagged SNX18 WT (sorting nexin 18) (protein, UniProt Q96RF0 1-628)
chain: T1 sequence with K38W
B2: myc-tagged SNX18 W38K (Dynamin-2 binding-deficient mutant) (protein, UniProt Q96RF0 1-628)
chain: T1 sequence

Assays:
[1] = target: T1, myc-tagged SNX18 W38K (Dynamin-2 binding-deficient mutant) (human); assay: co-IP; HEK293A cells transfected with myc control, myc-SNX18 WT or W38K; lysates incubated with magnetic anti-myc microbeads (μMACS myc-isolation kit); myc-IP blotted for Dynamin-2, ATG16L1 and myc
[2] = target: T2, myc-tagged SNX18 WT (sorting nexin 18) (human); assay: as above
flag-ATG16L1 = flag-ATG16L1 (UniProt Q676U5); assay: co-IP; HEK293A cells cotransfected with myc control, myc-SNX18 WT or W38K together with flag-ATG16L1; lysates incubated with magnetic anti-flag microbeads; flag-IP blotted for flag and myc

Row | Molecule | binding [1] | binding [2] | binding (flag-ATG16L1)
1 | ATG16L1 (endogenous) (from UniProt Q676U5 1-607) | binds | binds | 
2 | B1 |  |  | binds
3 | B2 |  |  | binds
